# Measured values published in US5354900A, “An H-ANP peptide, pharmaceutical composition and method of use” (Suntory Limited, priority 1983, dated 1994).
# At least one peptide structure holds a part that was inferred or is arguable (an end, a ring closure or a residue).
# Assays:
# [1] = tested on: Male rats; assay: Hypotensive action: blood pressure via femoral artery cannula in rat; format: in vivo; conditions: 1.2 μg (0.4 n mole) administered to a rat
# [2] = tested on: chicken rectum; assay: Chicken rectum relaxation activity
# [3] = tested on: Male rats; assay: Diuretic and natriuretic action in anesthetized rats (urine collected via bladder cannula); format: in vivo; conditions: rat; for Urine volume B: B = sample collected 30 minutes before administration; for Cl Excretion B / K Excretion B / Na Excretion B / Na/K ratio B: before administration; for Na/K ratio A / Na/K ratio B: urine; for Na/K ratio A: 5 minutes after administration
# [4] = Distinction of basic, acidic, or neutral property; format: physicochemical
smiles,measurement,setting,value
"CC[C@H](C)[C@@H]1NC(=O)[C@H](CCCNC(=N)N)NC(=O)[C@H](CC(=O)O)NC(=O)[C@H](CCSC)NC(=O)[C@H](CCCNC(=N)N)NC(=O)CNC(=O)CNC(=O)[C@H](Cc2ccccc2)NC(=O)[C@@H](NC(=O)[C@H](CO)NC(=O)[C@H](CO)NC(=O)[C@H](CCCNC(=N)N)NC(=O)[C@H](CCCNC(=N)N)NC(=O)[C@H](CC(C)C)NC(=O)[C@@H](N)CO)CSSC[C@@H](C(=O)N[C@@H](CC(N)=O)C(=O)N[C@@H](CO)C(=O)N[C@@H](Cc2ccccc2)C(=O)N[C@@H](CCCNC(=N)N)C(=O)N[C@@H](Cc2ccc(O)cc2)C(=O)O)NC(=O)CNC(=O)[C@H](CC(C)C)NC(=O)CNC(=O)[C@H](CO)NC(=O)[C@H](CCC(N)=O)NC(=O)[C@H](C)NC(=O)CNC1=O [α-hANP, α-human atrial natriuretic polypeptide]",duration of lowered blood pressure (FIG. 2),[1],about 45 minutes
same,chicken rectum relaxation activity,[2],has this activity
same,increase in the sodium excretion,[3]; 0.4 n mole,~27 fold
same,increase in the urination volume,[3]; 0.4 n mole,~20 fold
same,Urine volume B,"[3]; group II, 0.1 n mole into jugular vein",5.6 ± 1.3 µL/min
same,Cl Excretion B,"[3]; group II, 0.1 n mole",1335 ± 452 n eq/min
same,K Excretion B,"[3]; group II, 0.1 n mole",1944 ± 469 n eq/min
same,Na Excretion B,"[3]; group II, 0.1 n mole",737 ± 362 n eq/min
same,Urine volume B,"[3]; group III, 0.2 n mole into jugular vein",3.9 ± 0.6 µL/min
same,Cl Excretion B,"[3]; group III, 0.2 n mole",711 ± 225 n eq/min
same,K Excretion B,"[3]; group III, 0.2 n mole",1687 ± 655 n eq/min
same,Na Excretion B,"[3]; group III, 0.2 n mole",402 ± 114 n eq/min
same,Urine volume B,"[3]; group IV, 0.4 n mole into jugular vein",6.7 ± 0.9 µL/min
same,Cl Excretion B,"[3]; group IV, 0.4 n mole",1834 ± 439 n eq/min
same,K Excretion B,"[3]; group IV, 0.4 n mole",2190 ± 260 n eq/min
same,Na Excretion B,"[3]; group IV, 0.4 n mole",650 ± 93 n eq/min
same,speed of diuretic and natriuretic actions (FIG. 1),"[3]; after administration, compared with furosemide",more rapidly than furosemide
same,Na/K ratio A,"[3]; group II, 0.1 n mole",0.47
same,Na/K ratio B,"[3]; group II, 0.1 n mole",0.38
same,Na/K ratio A,"[3]; group III, 0.2 n mole",0.97
same,Na/K ratio B,"[3]; group III, 0.2 n mole",0.24
same,Na/K ratio A,"[3]; group IV, 0.4 n mole",about 2.0
same,Na/K ratio A,"[3]; group IV, 0.4 n mole, listed as hANPha.",2.00
same,Na/K ratio B,"[3]; group IV, 0.4 n mole",0.30
same,"basic, acidic, or neutral property",[4],basic
